Where two headings read alike, the source gives them in different places. Not every detail of the peptide structures is certain; ends, links or a residue may be inferred. Positions of bridges follow the written chain, without caps; N, C: chain ends. Residues, ends and D or L forms follow the SMILES beside them.
Assay type: physicochemical
Conditions: for Purity (in 75% IPA aq.) / Purity (in 90% EtOH aq.): 23° C., HPLC

CC(C)C[C@H](NC(=O)[C@@H]1CSSC[C@@H]2NC(=O)[C@H](CC(C)C)NC(=O)[C@H](CCC(=O)O)NC(=O)[C@@H](NC(=O)[C@H](CCC(=O)O)NC(=O)[C@H](CC(=O)O)NC(=O)[C@@H](N)CC(N)=O)CSSC[C@H](NC(=O)[C@H](C)NC(=O)[C@H](C(C)C)NC(=O)[C@H](CC(N)=O)NC(=O)[C@H](C(C)C)NC2=O)C(=O)N[C@@H]([C@@H](C)O)C(=O)NCC(=O)N1)C(=O)O [plecanatide, Asn^1-Asp^2-Glu^3-Cys^4-Glu^5-Leu^6-Cys^7-Val^8-Asn^9-Val^10-Ala^11-Cys^12-Thr^13-Gly^14-Cys^15-Leu^16] (H-NDECELCVNVACTGCL-OH; disulfide 4-12, 7-15 (inferred))
Purity (in 75% IPA aq.) (0 hours): 98.7%
Purity (in 90% EtOH aq.) (0 hours): 98.5%
Purity (in 75% IPA aq.) (2 hours): 98.7%
Purity (in 90% EtOH aq.) (2 hours): 98.4%
Purity (in 75% IPA aq.) (4 hours): 98.3%
Purity (in 75% IPA aq.) (6 hours): 97.5%
Purity (in 90% EtOH aq.) (6 hours): 98.1%
Purity (in 75% IPA aq.) (8 hours): 96.6%
Purity (in 90% EtOH aq.) (10 hours): 95.5%
Purity (in 90% EtOH aq.) (24 hours): 92.0%
Purity (in 75% IPA aq.) (25 hours): 96.1%
Purity of peptide/IPA/water eluate after storage (75% IPA/water eluate, initially 98.3% pure, storage at 2-8° C. for 2 days): 97.6%

From patent publication US12146003B2, “Ultra-pure agonists of guanylate cyclase C, method of making and using same” (Bausch Health Ireland Limited, priority 2013, dated 2024)
